No constants are given. Whether binding was seen depends on the method and setting. A result given as binding can be weak or reduced; the word gives no strength.

The text below walks through data of publication PMC10925144.

One test deals with T1, SPO-11 (C. elegans) (UniProt Q22236).
T1 sequence: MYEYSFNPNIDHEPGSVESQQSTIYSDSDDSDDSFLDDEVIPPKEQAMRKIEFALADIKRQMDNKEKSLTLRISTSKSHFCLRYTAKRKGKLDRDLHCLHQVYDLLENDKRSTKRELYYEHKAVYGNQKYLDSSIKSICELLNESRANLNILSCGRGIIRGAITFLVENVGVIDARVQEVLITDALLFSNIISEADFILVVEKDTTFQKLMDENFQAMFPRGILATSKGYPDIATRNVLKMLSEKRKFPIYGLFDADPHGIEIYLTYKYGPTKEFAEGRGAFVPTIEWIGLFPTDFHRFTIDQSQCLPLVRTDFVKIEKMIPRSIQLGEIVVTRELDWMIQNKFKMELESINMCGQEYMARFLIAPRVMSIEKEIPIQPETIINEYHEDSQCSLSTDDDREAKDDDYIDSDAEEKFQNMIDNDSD
Briefly: two-hybrid; Gal4 activating domain (pGAD-C1) and binding domain (pGBD-C1) fusions co-transformed into yeast PJ69-4a; spotted on SC-LEU-TRP-HIS (interaction) and SC-LEU-TRP-ADE (more stringent, strong interactions); 30°C, 72 h.

Another test concerns the target XND-1 (C. elegans) (UniProt O45134). The description is as above.

Consider DSB-1 (C. elegans), for which the binding entry with SPO-11 (C. elegans) was “binds”.

Take “DSB-1(1–114) (C. elegans) (domain or fragment)”: the binding result with SPO-11 (C. elegans) is listed as “binds”.

For the substance “DSB-1(1–145) (C. elegans) (domain or fragment)”, the binding entry with SPO-11 (C. elegans) was “binds”.

For the substance HIM-17 (from UniProt Q22360), in the test with XND-1 (C. elegans), the binding result is recorded as “binds”.
